Reference: patent US11001808B2, “Immortalization of epithelial cells and methods of use” (Georgetown University, priority 2010, dated 2021)
pEC50: −log10 of the molar value.

Key:
[1] = tested on: cervical cancer cells that express the high-risk HPVs; settings: previous studies; cited from earlier work
[2] = tested on: HPV-11-containing tumor cells from the patient; assay: Cell viability curves (CellTiter-Glo Luminescent Cell Viability Assay), patient's cultured tumor cells; type: cell-based; settings: Homo sapiens, tumor cells treated 24 hours
Description: Normal and tumor cells were treated with Cidofovir, Vorinostat or DHA at indicated concentration for 24 hours. Cell viabilities were measured using CellTiter-Glo® Luminescent Cell Viability Assay (Promega)
There is no data in the literature, however, analyzing the effect of these inhibitors on cells containing low-risk HPVs, because there are no cell lines established that contain HPV-6 or HPV-11. […] More importantly, this cell line was used to evaluate the sensitivity to the above inhibitors and to compare it to the sensitivity of normal lung cells isolated from the same patient (FIG. 17).
Cidovovir is the most common drug used for treating RRP.

## O=C(CCCCCCC(=O)Nc1ccccc1)NO [SAHA]
[1]
  killing of cervical cancer cells: able to efficiently kill
[2]
  pEC50: 5.70
